Experimental data from publication PMC8844116.
No constants are given. Whether binding was seen depends on the method and setting. Binding seen in cells or lysates may run through a third protein. For part of these data: A result given as binding can be weak or reduced; the word gives no strength.

Columns and labels:
[1] = target: T1, MEKK3, endogenous in mouse hippocampus (mouse (endogenous in hippocampus)) (UniProt Q61084); experiment: co-IP; endogenous proteins of the hippocampus of C57BL/6 mice with high fat diet and STZ-induced diabetes and of control mice; groups Con, DM, FPS-ZM1 1.0 mg/kg, corn oil; immunoprecipitation and immunoblot
T1 sequence: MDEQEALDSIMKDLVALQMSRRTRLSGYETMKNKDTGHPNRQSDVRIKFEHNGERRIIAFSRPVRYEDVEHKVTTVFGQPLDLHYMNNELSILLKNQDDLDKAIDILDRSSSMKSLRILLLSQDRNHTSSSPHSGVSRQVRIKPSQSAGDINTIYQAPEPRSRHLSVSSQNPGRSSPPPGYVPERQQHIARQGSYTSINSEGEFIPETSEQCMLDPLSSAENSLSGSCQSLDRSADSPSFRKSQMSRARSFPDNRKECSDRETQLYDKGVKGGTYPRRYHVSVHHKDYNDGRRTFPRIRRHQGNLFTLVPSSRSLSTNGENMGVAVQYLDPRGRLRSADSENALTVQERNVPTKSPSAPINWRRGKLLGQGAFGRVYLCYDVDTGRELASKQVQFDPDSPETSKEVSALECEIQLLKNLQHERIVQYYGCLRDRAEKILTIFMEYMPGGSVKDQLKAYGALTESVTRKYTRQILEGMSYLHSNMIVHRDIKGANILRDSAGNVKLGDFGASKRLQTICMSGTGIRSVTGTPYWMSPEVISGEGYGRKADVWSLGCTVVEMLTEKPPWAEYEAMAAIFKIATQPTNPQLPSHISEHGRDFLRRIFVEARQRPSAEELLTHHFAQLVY

[2] = target: T1, MEKK3, endogenous in mouse hippocampus (mouse (endogenous in hippocampus)); experiment: condition: only mice treated with FPS-ZM1 1.0 mg/kg; co-IP; endogenous proteins of the hippocampus of db/db mice treated with the RAGE antagonist FPS-ZM1 (1.0 mg/kg daily, 8 weeks); immunoprecipitation and immunoblot
[3] = target: T1, MEKK3, endogenous in mouse hippocampus (mouse (endogenous in hippocampus)); experiment: co-IP; endogenous proteins of the hippocampus of db/db and db/m mice; groups db/m, db/db, corn oil; immunoprecipitation and immunoblot

binding [1]: binds
binding [2]: no binding
binding [3]: binds
Substance: p38 mitogen-activated protein kinase, endogenous in mouse hippocampus (enzyme)
